Measurements from the supplement of paper PMC10849652.
Some of the results follow.

By UniProt entry, the sequences of proteins in these tests, tags left out. Where a name states a change or a piece, a line headed by the entry shows the natural chain unless it says otherwise.
UniProt Q9P2P5: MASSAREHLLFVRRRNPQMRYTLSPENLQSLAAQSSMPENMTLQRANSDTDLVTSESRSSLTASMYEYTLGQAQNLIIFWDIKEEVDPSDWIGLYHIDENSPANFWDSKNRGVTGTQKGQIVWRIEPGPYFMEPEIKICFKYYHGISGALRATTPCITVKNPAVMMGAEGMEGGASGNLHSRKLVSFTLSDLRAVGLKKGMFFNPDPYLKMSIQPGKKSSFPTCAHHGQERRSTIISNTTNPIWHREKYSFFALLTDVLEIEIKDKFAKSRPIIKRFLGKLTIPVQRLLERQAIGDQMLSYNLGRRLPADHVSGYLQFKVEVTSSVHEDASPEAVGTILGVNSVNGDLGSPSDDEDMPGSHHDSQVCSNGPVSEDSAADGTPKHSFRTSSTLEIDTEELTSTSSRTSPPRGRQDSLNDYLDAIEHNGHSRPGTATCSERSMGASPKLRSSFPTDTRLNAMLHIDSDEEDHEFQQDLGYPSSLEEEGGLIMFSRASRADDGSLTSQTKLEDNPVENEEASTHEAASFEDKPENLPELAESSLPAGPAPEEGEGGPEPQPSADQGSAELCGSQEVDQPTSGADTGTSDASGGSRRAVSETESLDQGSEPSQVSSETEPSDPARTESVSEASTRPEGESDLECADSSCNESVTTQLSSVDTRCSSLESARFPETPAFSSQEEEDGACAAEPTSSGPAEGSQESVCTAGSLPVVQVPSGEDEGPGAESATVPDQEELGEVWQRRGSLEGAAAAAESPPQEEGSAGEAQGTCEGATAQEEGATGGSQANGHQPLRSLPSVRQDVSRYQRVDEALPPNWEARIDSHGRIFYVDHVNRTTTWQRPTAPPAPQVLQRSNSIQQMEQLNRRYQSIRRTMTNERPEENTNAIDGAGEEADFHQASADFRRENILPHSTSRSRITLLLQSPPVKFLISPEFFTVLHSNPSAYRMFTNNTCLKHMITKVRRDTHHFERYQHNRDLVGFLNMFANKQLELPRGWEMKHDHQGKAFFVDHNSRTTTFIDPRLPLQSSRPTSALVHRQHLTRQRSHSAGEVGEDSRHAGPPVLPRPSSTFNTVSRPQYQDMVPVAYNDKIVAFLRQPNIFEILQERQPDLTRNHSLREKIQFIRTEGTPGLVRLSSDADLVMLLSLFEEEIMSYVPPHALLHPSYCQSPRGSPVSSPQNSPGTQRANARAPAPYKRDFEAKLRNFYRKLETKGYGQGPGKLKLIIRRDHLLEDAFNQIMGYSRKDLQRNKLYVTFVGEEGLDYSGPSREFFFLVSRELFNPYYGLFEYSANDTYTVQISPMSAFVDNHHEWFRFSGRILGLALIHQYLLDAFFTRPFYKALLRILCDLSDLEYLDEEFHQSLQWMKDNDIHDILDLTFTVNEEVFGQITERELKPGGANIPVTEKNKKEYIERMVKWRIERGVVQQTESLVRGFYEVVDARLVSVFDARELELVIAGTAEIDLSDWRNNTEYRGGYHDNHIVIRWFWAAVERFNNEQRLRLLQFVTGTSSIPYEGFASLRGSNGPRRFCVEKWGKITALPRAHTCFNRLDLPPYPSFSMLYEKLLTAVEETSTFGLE
UniProt Q9BQA5: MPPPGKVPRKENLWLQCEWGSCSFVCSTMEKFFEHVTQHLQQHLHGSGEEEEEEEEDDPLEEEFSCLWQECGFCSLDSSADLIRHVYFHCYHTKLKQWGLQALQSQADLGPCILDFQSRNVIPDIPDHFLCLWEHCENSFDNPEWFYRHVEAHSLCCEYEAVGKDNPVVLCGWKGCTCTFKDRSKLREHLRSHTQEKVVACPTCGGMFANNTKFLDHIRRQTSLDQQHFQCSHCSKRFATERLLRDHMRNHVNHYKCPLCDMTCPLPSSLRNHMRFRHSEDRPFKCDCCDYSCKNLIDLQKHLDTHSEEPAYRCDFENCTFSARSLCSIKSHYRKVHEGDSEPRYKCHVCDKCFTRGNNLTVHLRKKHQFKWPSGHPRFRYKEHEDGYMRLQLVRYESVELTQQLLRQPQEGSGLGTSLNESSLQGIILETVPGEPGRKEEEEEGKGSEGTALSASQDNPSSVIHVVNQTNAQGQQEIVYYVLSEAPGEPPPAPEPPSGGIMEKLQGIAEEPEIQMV
UniProt P54198, whole entry, looked up: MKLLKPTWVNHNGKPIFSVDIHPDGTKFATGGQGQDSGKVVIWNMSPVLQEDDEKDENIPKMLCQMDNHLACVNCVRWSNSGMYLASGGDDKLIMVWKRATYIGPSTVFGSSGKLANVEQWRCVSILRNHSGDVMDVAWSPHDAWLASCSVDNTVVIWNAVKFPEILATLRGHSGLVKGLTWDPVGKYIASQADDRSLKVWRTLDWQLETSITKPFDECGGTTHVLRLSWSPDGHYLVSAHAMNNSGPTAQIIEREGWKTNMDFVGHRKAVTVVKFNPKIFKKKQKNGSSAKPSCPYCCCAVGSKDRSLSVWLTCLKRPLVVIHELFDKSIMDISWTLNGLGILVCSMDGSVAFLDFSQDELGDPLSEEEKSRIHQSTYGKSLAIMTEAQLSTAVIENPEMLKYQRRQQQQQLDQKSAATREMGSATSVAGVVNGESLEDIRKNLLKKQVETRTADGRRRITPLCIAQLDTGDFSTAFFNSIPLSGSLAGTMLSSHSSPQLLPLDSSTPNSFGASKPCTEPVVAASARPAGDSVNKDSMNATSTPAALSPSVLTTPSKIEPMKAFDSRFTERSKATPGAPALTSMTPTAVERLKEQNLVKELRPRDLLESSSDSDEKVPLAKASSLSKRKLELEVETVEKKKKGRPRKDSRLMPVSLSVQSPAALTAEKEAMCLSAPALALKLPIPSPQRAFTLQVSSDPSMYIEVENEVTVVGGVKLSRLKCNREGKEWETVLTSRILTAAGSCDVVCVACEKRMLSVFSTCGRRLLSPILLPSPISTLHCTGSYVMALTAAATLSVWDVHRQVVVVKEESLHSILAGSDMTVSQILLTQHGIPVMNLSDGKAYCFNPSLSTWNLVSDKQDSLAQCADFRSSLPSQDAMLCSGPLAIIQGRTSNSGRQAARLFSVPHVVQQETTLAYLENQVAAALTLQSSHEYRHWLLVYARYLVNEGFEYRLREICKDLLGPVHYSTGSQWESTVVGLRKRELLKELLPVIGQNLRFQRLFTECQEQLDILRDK
UniProt P14210, whole entry, looked up: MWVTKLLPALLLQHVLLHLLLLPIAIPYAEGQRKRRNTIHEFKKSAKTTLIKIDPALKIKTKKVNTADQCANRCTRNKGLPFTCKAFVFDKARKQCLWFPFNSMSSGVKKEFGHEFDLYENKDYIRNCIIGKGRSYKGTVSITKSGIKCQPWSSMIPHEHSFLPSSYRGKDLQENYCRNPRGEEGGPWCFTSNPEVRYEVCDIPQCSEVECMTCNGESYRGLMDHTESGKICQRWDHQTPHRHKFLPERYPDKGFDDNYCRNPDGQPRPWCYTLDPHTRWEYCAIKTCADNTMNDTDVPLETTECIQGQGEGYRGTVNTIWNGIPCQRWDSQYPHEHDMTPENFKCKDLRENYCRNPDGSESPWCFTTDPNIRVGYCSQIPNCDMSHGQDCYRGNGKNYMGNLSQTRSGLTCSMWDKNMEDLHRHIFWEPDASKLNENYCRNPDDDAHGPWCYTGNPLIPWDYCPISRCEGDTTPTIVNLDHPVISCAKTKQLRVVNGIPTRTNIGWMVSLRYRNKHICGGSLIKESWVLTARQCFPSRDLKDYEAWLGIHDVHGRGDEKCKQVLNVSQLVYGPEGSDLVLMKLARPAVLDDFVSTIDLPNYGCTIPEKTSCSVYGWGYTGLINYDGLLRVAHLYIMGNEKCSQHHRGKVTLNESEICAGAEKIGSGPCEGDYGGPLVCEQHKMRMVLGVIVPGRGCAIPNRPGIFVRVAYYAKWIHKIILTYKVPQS
UniProt Q96JB3: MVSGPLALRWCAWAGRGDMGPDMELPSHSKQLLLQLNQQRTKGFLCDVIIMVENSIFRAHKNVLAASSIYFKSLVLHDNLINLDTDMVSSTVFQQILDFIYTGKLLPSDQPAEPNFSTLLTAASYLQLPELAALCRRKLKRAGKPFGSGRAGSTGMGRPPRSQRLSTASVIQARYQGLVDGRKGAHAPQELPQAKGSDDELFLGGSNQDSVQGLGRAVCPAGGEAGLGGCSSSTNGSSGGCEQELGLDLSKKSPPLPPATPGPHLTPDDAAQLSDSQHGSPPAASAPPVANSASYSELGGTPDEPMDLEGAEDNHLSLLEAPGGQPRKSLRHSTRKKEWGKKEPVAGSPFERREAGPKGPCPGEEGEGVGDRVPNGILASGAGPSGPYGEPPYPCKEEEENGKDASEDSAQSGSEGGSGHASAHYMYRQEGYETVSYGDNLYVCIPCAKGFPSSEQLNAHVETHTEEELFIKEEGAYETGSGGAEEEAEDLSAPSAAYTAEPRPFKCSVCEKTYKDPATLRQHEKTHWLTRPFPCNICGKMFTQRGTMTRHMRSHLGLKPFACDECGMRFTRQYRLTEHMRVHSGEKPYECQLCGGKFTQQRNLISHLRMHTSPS
UniProt Q86YV9: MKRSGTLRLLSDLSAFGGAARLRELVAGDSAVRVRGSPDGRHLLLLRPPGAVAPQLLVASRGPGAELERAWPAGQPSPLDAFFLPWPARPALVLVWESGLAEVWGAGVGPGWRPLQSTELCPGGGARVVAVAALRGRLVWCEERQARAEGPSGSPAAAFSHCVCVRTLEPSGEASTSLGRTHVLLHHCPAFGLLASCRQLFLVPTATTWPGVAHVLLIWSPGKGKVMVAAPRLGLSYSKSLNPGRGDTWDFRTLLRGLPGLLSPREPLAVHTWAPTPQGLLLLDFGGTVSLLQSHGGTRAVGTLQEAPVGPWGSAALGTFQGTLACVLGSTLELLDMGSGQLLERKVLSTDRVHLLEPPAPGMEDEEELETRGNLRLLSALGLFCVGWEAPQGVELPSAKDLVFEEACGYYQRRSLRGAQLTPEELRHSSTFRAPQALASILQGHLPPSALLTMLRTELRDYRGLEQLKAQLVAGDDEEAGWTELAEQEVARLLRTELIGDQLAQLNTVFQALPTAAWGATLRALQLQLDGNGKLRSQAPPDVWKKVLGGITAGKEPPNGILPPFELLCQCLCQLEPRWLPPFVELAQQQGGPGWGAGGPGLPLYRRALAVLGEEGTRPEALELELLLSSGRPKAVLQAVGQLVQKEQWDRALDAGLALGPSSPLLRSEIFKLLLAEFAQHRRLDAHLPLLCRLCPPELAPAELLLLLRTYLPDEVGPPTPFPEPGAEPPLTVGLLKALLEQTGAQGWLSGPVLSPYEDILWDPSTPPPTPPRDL
UniProt P17096: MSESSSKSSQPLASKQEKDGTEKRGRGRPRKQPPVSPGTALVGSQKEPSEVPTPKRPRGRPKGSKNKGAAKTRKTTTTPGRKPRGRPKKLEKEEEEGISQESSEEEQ
UniProt Q9BW72: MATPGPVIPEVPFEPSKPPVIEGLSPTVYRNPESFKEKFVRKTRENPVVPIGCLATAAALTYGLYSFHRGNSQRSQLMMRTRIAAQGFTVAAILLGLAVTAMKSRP
UniProt Q14469: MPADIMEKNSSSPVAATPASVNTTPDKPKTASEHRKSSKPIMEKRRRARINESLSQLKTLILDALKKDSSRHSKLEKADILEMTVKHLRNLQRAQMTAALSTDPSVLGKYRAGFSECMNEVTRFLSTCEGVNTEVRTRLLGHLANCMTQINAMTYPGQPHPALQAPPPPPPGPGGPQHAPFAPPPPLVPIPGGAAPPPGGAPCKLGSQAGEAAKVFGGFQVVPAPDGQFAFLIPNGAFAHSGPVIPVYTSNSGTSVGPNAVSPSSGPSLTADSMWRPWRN
UniProt Q9Y241: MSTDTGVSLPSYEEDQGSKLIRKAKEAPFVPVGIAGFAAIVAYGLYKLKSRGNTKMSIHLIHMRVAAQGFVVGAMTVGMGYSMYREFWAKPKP
UniProt Q03933: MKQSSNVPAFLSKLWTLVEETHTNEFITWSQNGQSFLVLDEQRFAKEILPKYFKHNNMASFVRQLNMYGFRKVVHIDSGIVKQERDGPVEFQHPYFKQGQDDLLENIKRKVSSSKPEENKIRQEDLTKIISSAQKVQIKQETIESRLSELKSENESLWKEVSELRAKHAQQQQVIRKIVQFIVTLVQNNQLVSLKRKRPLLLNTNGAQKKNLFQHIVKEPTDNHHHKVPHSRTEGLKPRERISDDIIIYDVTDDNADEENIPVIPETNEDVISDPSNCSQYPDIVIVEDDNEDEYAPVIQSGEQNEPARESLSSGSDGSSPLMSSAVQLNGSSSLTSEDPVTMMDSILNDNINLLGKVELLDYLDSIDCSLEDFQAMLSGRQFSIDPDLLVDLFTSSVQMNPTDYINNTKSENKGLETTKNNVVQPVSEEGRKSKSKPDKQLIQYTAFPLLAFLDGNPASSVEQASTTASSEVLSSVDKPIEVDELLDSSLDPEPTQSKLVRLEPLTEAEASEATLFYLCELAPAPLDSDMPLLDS

Compound: CC1=C(C=C(C=C1)NC(=O)C2=CC(=CC=C2)C(C)(C)C#N)NC3=CC4=C(C=C3)N=CN(C4=O)C
Test: log2 fold change, soluble protein after heating vs DMSO (PISA); higher = thermal stabilisation; K562 lysate, 10 uM; active = over 0.2 and 3.5 SD of the protein, either way, in both replicates (recomputed)
In short: (§1)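 Values give the log-two fold change in thermal stability against solvent controls, from duplicates. Crude K562 extract at 1 mg/mL protein, made by dounce homogenisation in PBS pH 7.4 with 1 mM MgCl2, was treated with 10 μM compound for 30 min. After 3 min heating across 48°C-58°C, aliquots were pooled, adjusted to 0.5% NP-40 at 4°C and centrifuged at 21,000xg for 90 min. The supernatant was measured by TMTpro 16plex LC-MS/MS with channel sums equalised.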

Target	log2 fold change
HECW2 (UniProt Q9P2P5)	inactive: 0.116
HELLS (UniProt Q9NRZ9)	inactive: -0.12
HINFP (UniProt Q9BQA5)	inactive: -0.001
HIRA (UniProt P54198)	inactive: -0.031
HRAS (UniProt P01112)	inactive: 0.006
HNRNPD (UniProt D6RF44)	inactive: -0.334
HGF (UniProt P14210)	inactive: 0.087
HMGCR isoform 3 (UniProt P04035)	inactive: -0.018
HIC2 isoform 2 (UniProt Q96JB3)	inactive: 0.074
HPS6 (UniProt Q86YV9)	inactive: -0.113
HELZ2 (UniProt Q9BYK8)	inactive: -0.112
HMGA1 isoform 2 (UniProt P17096)	inactive: -0.034
HSP90AA2P (UniProt Q14568)	inactive: -0.008
HEXIM2 (UniProt Q96MH2)	inactive: 0.008
HNRNPM (UniProt M0QZM1)	inactive: -0.068
HERC3 (UniProt Q15034)	inactive: -0.012
HIGD2A (UniProt Q9BW72)	inactive: -0.099
HPS3 (UniProt Q969F9)	inactive: 0.145

Compound: CC1=C(C=C(C=C1)NC(=O)C2=CC(=CC=C2)N(C)C)NC(=O)C3=CC=C(C=C3)O
Test: as above
In short: as §1

Target	log2 fold change
HECW2 (UniProt Q9P2P5)	inactive: 0.073
HELLS (UniProt Q9NRZ9)	inactive: -0.055
HES1 (UniProt Q14469)	inactive: -0.082
HIRA (UniProt P54198)	inactive: 0.053
HRAS (UniProt P01112)	inactive: 0.081
HIGD1A isoform 2 (UniProt Q9Y241)	inactive: -0.099
HP (UniProt P00738)	inactive: 0.032
HGF (UniProt P14210)	inactive: -0.031
HSF2 (UniProt Q03933)	inactive: 0.081
HMGA1 isoform 2 (UniProt P17096)	inactive: 0.054
HEXIM2 (UniProt Q96MH2)	inactive: 0.02
HERC3 (UniProt Q15034)	inactive: -0.011
HPS3 (UniProt Q969F9)	inactive: -0.013

Compound: CC1=CC=C(C=C1)SC2=C3C=C(SC3=CN=C2)C(=O)N
Test: as above
In short: as §1

Target	log2 fold change
HES1 (UniProt Q14469)	inactive: -0.082
HIRA (UniProt P54198)	inactive: 0.023
HRAS (UniProt P01112)	inactive: 0.08
HIGD1A isoform 2 (UniProt Q9Y241)	inactive: -0.002
HMGA1 isoform 2 (UniProt P17096)	inactive: 0.01
